Results from patent publication US9108937B2 (Merck Sharp & Dohme Corp., priority 2010, dated 2015).
Some of these results come from one statement about several compounds together.

Chains of the proteins cited; added tags and fusions are not shown. Residues count along the entry.
UniProt Q14416, 19-872: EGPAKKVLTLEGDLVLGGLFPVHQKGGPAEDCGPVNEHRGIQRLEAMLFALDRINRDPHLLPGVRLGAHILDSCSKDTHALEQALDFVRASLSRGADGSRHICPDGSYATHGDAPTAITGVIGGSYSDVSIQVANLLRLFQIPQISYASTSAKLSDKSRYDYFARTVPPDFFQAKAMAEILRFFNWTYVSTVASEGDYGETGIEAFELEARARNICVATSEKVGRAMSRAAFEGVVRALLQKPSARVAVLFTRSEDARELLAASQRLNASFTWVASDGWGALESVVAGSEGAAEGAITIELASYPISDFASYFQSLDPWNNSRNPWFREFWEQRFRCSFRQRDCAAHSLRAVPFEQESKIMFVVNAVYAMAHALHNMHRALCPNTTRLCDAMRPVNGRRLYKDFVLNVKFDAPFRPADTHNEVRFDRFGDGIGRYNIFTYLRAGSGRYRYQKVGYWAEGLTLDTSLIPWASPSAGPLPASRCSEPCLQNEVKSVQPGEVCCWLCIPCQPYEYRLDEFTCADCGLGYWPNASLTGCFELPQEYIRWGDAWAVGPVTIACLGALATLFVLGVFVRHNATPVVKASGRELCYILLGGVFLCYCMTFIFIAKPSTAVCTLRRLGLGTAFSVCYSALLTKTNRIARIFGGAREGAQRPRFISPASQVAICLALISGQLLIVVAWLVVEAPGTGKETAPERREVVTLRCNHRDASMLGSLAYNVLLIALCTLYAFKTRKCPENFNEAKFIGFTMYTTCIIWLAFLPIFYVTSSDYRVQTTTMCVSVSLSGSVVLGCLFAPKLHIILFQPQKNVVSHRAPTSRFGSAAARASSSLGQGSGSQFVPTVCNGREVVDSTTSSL

Target: T1, human mGluR2 (Homo sapiens, UniProt Q14416)
T1 construct: expressed in transfected cells
Assay: FLIPR Ca2+ mobilization assay, potentiation of glutamate response
Format: cell-based
Conditions: for minimum fold potentiation of glutamate response: in the presence of an EC20 concentration of glutamate (900 nM); for EC50: stated as 'generally with an EC50 of less than about 1.5 μM', read-out: EC50, potentiating the mGluR2 receptor in the FLIPR assay
Method: Inhibition constants are determined as follows. The compounds of the present invention may be tested in a fluorescence laser imaging plate reader (FLIPR) based assay. This assay is a common functional assay to monitor Ca^2+ mobilization in whole cells expressing recombinant receptor coupled with a promiscuous G-protein. CHO dhfr− cells stably expressing recombinant human mGluR2 and Gα16 loaded with Fluo-4 AM (Invitrogen, Carlsbad Calif.) are treated with dose responses of compounds and the Ca^2+ response is monitored on a FLIPR384 (Molecular Devices, Sunnydale Calif.) for agonist activity. The potentiation response is monitored after a subsequent addition of an EC20 concentration of glutamate (900 nM). The maximum calcium response at each concentration of compound for agonist or potentiation are plotted as dose responses and the curves are fitted with a four parameters logistic equation giving EC50 and Hill coefficient using the iterative non linear curve fitting software program.

| Compound | minimum fold potentiation of glutamate response | EC50 |
| --- | --- | --- |
| Cc1ccc(C(C)(C)O)cc1-c1ccc2c(c1)N(C)S(=O)(=O)N2CC(C)(C)C [Compound 19-2, 2-{3-[1-(2,2-dimethylpropyl)-3-methyl-2,2-dioxido-1,3-dihydro-2,1,3-benzothiadiazol-5-yl]-4-methylphenyl}propan-2-ol] | ≥ 1.5 fold | < 1500 nM |
| COc1ccc(CN2c3ccc(-c4ccccc4C#N)cc3N(C)S2(=O)=O)cc1 [Compound 9-2, 2-[1-(4-methoxybenzyl)-3-methyl-2,2-dioxido-1,3-dihydro-2,1,3-benzothiadiazol-5-yl]benzonitrile] | ≥ 1.5 fold | < 1500 nM |
| CN1c2cc(-c3cc(Oc4ccnc(C#N)c4)ccc3C#N)ccc2N(CC(C)(C)C)S1(=O)=O [Compound 13-3, 4-{4-cyano-3-[1-(2,2-dimethylpropyl)-3-methyl-2,2-dioxido-1,3-dihydro-2,1,3-benzothiadiazol-5-yl]phenoxy}pyridine-2-carbonitrile] | ≥ 1.5 fold | < 1500 nM |
| CN1c2cc(-c3cc(Oc4ccnc(C#N)c4)ccc3C#N)ccc2N(CC2CC2)S1(=O)=O [Compound 14-2, 4-{4-cyano-3-[1-(cyclopropylmethyl)-3-methyl-2,2-dioxido-1,3-dihydro-2,1,3-benzothiadiazol-5-yl]phenoxy}pyridine-2-carbonitrile] | ≥ 1.5 fold | < 1500 nM |
| C[C@@H](O)C(=O)N1CCN(Cc2ccc(Cl)c(-c3ccc4c(n3)N(C)S(=O)(=O)N4CC3CC3(F)F)c2)CC1 (stereo partly drawn) [Compound 45-3, (2R)-1-[4-(4-chloro-3-{1-[(2,2-difluorocyclo-propyl)methyl]-3-methyl-2,2-dioxido-1,3-dihydro[1,2,5]thiadiazolo[3,4-b]pyridin-5-yl}benzyl)piper-azin-1-yl]-2-hydroxypropan-1-one] | ≥ 1.5 fold | < 1500 nM |
| CN1c2nc(-c3cccc(N4CCS(=O)(=O)CC4)c3)ccc2N(CC(C)(C)C)S1(=O)=O [Compound 30-3, 1-(2,2-dimethylpropyl)-5-[3-(1,1-dioxidothiomorpholin-4-yl)phenyl]-3-methyl-1,3-dihydro[1,2,5]thiadiazolo [3,4-b]pyridine 2,2-dioxide] | ≥ 1.5 fold | < 1500 nM |

The next lines start with the values.

| minimum fold potentiation of glutamate response | EC50 | Compound |
| --- | --- | --- |
| ≥ 1.5 fold | < 1500 nM | CC(=O)N1CCN(c2cccc(-c3ccc4c(n3)N(C)S(=O)(=O)N4CC3CC3(F)F)c2)CC1 (centres unmarked) [Compound 35-1, 1-[4-(3-{1-[(2,2-difluorocyclopropyl)methyl]-3-methyl-2,2-dioxido-1,3-dihydro[1,2,5]thiadiazolo[3,4-b]pyridin-5-yl}phenyl)piperazin-1-yl]ethanone] |
| ≥ 1.5 fold | < 1500 nM | CC(=O)N1CCN(Cc2ccc(Cl)c(-c3ccc4c(n3)N(C)S(=O)(=O)N4CC3CC3(F)F)c2)CC1 (centres unmarked) [Compound 45-2, 1-[4-(4-chloro-3-{1-[(2,2-difluorocyclopropyl)methyl]-3-methyl-2,2-dioxido-1,3-dihydro[1,2,5]thiadiazolo[3,4-b]pyridin-5-yl}benzyl)piperazin-1-yl]ethanone] |
| ≥ 1.5 fold | < 1500 nM | CN1c2nc(-c3cccc(C(C)(C)O)c3F)ccc2N(CC2CC2(F)F)S1(=O)=O (centres unmarked) [Compound 37-2, 2-(3-{1-[(2,2-difluorocyclopropyl)methyl]-3-methyl-2,2-dioxido-1,3-dihydro[1,2,5]thiadiazolo[3,4-b]pyridin-5-yl}-2-fluorophenyl)propan-2-ol] |
| ≥ 1.5 fold | < 1500 nM | Cc1ccc(C(C)(C)O)nc1-c1ccc2c(c1)N(C)S(=O)(=O)N2CC1CC1(F)F (centres unmarked) [Compound 27-1, 2-(6-{1-[(2,2-difluorocyclopropyl)methyl]-3-methyl-2,2-dioxido-1,3-dihydro-2,1,3-benzothiadiazol-5-yl}-5-methylpyridin-2-yl)propan-2-ol] |
